Test results: the supplement of paper PMC4604168 (melanoma cell lines)
The other results are listed elsewhere or left out. Single values are uncertain, as repeats are few or missing.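 Imaging used 1,536-well plates; nuclei positive for cleaved PARP by antibody were divided by total DNA-stained nuclei to yield the apoptosis fraction. Doses for screening kept most cells viable, and cell lines differ markedly in resting and induced cleaved-PARP levels.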

Experiments:
Experiment in all cases: cleaved PARP positive nuclei fraction relative to DMSO control; melanoma cells; higher = more apoptosis
Details in all cases: library dose: low library concentration; 72 h
A101D = test system: A101D
A2058 = test system: A2058
C32 = test system: C32
CBRC008 = test system: CBRC008 (line from a melanoma biopsy)
CBRC014 = test system: CBRC014 (line from a melanoma biopsy)
CBRC016 = test system: CBRC016 (line from a melanoma biopsy)
CBRC017 = test system: CBRC017 (line from a melanoma biopsy)
COLO792 = test system: COLO792
COLO800 = test system: COLO800
COLO829 = test system: COLO829
G361 = test system: G361
IPC-298 = test system: IPC-298
IST-MEL1 = test system: IST-MEL1
LOXIMVI = test system: LOXIMVI
A375 = test system: A375
CBRC034 = test system: CBRC034 (line from a melanoma biopsy)
MEL-HO = test system: MEL-HO

SMILES	cleaved PARP positive nuclei fraction (A101D) [%]	cleaved PARP positive nuclei fraction (A2058) [%]	cleaved PARP positive nuclei fraction (C32) [%]	cleaved PARP positive nuclei fraction (CBRC008) [%]	cleaved PARP positive nuclei fraction (CBRC014) [%]	cleaved PARP positive nuclei fraction (CBRC016) [%]	cleaved PARP positive nuclei fraction (CBRC017) [%]	cleaved PARP positive nuclei fraction (COLO792) [%]	cleaved PARP positive nuclei fraction (COLO800) [%]	cleaved PARP positive nuclei fraction (COLO829) [%]	cleaved PARP positive nuclei fraction (G361) [%]	cleaved PARP positive nuclei fraction (IPC-298) [%]	cleaved PARP positive nuclei fraction (IST-MEL1) [%]	cleaved PARP positive nuclei fraction (LOXIMVI) [%]	cleaved PARP positive nuclei fraction (A375) [%]	cleaved PARP positive nuclei fraction (CBRC034) [%]	cleaved PARP positive nuclei fraction (MEL-HO) [%]
O=C(O)[C@@H]1[O][Sb](=[O])([O][Sb]2(=[O])[O][C@H]([C@H](O)CO)[C@H](O)[C@H](C(=O)O)[O]2)[O][C@H]([C@H](O)CO)[C@@H]1O (stereo partly specified) [stibogluconate] + N#Cc1c(O)c2c(-c3ccc(-c4ccccc4O)cc3)csc2[nH]c1=O [A769662] (first compound 2 µM, partner dose 2 µM)	27.1	72.7	87	67.4	94.3	74.2	82	81	134	109	148	46.1	133	80.5			
C=C(c1ccc(C(=O)O)cc1)c1cc2c(cc1C)C(C)(C)CCC2(C)C [Bexarotene] + Nc1ncn([C@H]2C[C@H](O)[C@@H](CO)O2)c(=O)n1 [decitabine] (first compound 2 µM, partner dose 0.1 µM)	97.9	206	70.6	136	124	85.4	142	161	66.8	82.3	152	114	76.9	66.8	228	66.6	329
Nc1ncn([C@H]2C[C@H](O)[C@@H](CO)O2)c(=O)n1 [decitabine] + O=C(O)C(=O)Nc1sc2c(c1C(=O)O)CCNC2 [TCS401] (first compound 0.1 µM, partner dose 1.66667 µM)	41.3	210	36.5	57.5	94.5	79.2	80.3	86.4	46.2	106	190	294	139	124			
Cc1cc(Nc2cc(N3CCN(C)CC3)nc(/C=C/c3ccccc3)n2)n[nH]1 + Cn1c(Nc2ccc(C(F)(F)F)cc2)nc2cc(Oc3ccnc(-c4ncc(C(F)(F)F)[nH]4)c3)ccc21 [CHIR265] (first compound 0.04 µM, partner dose 0.08 µM)	202	193	96.3	44.9	91.2	77.9	119	99.8	105	204	106	123	191	120	302	35.8	94.6
C[C@@H](Oc1cc(-c2cnn(C3CCNCC3)c2)cnc1N)c1c(Cl)ccc(F)c1Cl [Crizotinib] + Nc1nc(F)nc2c1ncn2[C@@H]1O[C@H](CO)[C@@H](O)[C@@H]1O [fludarabine] (first compound 0.2 µM, partner dose 0.2 µM)	43	96.4	69.9	94.9	97.5	103	104	104	135	200	139	116	33.6	111	4840	191	48.4
CNC(=O)c1cc(Oc2ccc(NC(=O)Nc3ccc(Cl)c(C(F)(F)F)c3)cc2)ccn1 [sorafenib] + COCC[n+]1c2c(n(Cc3cnccn3)c1C)C(=O)c1ccccc1C2=O [YM155] (first compound 0.4 µM, partner dose 0.0004 µM)	40.9	191	71.6	249	99.8	22.4	101	26.3	52.1	141	53.9	97.6	58.5	241	112	89.9	38
C[C@@H](Oc1cc(-c2cnn(C3CCNCC3)c2)cnc1N)c1c(Cl)ccc(F)c1Cl [Crizotinib] + C=CCNC1=C2C[C@@H](C)C[C@H](OC)[C@H](O)[C@@H](C)/C=C(\C)[C@H](OC(N)=O)[C@@H](OC)/C=C\C=C(/C)C(=O)NC(=CC1=O)C2=O [Tanespimycin] (first compound 0.2 µM, partner dose 0.002 µM)	188	51.2	93.7	118	88.9	150	107	45.6	43.4	44.9	58.5	279	62.8	118	22.6	99.9	70.3
O=C(O)c1ccc2c(c1)nc(Nc1cccc(Cl)c1)c1ccncc12 + C#Cc1cccc(Nc2ncnc3cc(OCCOC)c(OCCOC)cc23)c1 [erlotinib] (first compound 0.4 µM, partner dose 0.8 µM)	69.6	278	76.9	159	133	230	173	143	63	54.2	130	205	56.9	150	345	129	173
C[C@@H](Oc1cc(-c2cnn(C3CCNCC3)c2)cnc1N)c1c(Cl)ccc(F)c1Cl [Crizotinib] + O=C(Nc1ccccc1)c1cc([N+](=O)[O-])ccc1Cl [GW9662] (first compound 0.2 µM, partner dose 2 µM)	34.1	74.5	68.7	178	93.2	42.8	175	112	77.1	124	28.3	36.8	94.8	147			
CC(C)C[C@H](NC(=O)[C@H](Cc1ccccc1)NC(=O)c1cnccn1)B(O)O [Bortezomib] + CCN(CC)CCCCNc1ncc2cc(-c3cc(OC)cc(OC)c3)c(NC(=O)NC(C)(C)C)nc2n1 [PD173074] (first compound 0.001 µM, partner dose 0.1 µM)	42.5	115	76.6	873	164	160	178	76.8	133	272	1230	59.5	123	125			
CO[C@H]1C[C@@H]2CC[C@@H](C)[C@@](O)(O2)C(=O)C(=O)N2CCCC[C@H]2C(=O)O[C@H]([C@H](C)C[C@@H]2CC[C@@H](OCCO)[C@H](OC)C2)CC(=O)[C@H](C)/C=C(\C)[C@@H](O)[C@@H](OC)C(=O)[C@H](C)C[C@H](C)/C=C/C=C/C=C/1C [everolimus] + COCC[n+]1c2c(n(Cc3cnccn3)c1C)C(=O)c1ccccc1C2=O [YM155] (first compound 0.02 µM, partner dose 0.0004 µM)	125	99.9	100	319	108	126	178	122	236	262	176	142	78.5	142	275	222	145
Nc1ccn([C@@H]2O[C@H](CO)[C@@H](O)C2(F)F)c(=O)n1 [gemcitabine] + O=C(Nc1ccccc1)c1cc([N+](=O)[O-])ccc1Cl [GW9662] (first compound 0.0004 µM, partner dose 2 µM)	38.6	87.1	122	184	145	195	227	72.6	116	48.4	111	118	135	154			
O=C(O)[C@@H]1[O][Sb](=[O])([O][Sb]2(=[O])[O][C@H]([C@H](O)CO)[C@H](O)[C@H](C(=O)O)[O]2)[O][C@H]([C@H](O)CO)[C@@H]1O (stereo partly specified) [stibogluconate] + O=S(=O)(c1ccccc1)N(CC(F)(F)F)c1ccc(C(O)(C(F)(F)F)C(F)(F)F)cc1 [T0901317] (first compound 2 µM, partner dose 1.4 µM)	30.6	167	102	56	216	61.8	58.1	76.8	34.9	184	148	51.3	33.3	35			
Nc1ccn([C@@H]2O[C@H](CO)[C@@H](O)C2(F)F)c(=O)n1 [gemcitabine] + Cn1cc(/C=C2\C(=O)Nc3cccnc32)c2ccccc21 [GW441756] (first compound 0.0004 µM, partner dose 0.4 µM)	36.2	73.2	151	97.5	135	81	164	129	187	43	132	101	70	116			
Nc1nc(F)nc2c1ncn2[C@@H]1O[C@H](CO)[C@@H](O)[C@@H]1O [fludarabine] + Oc1nc(-c2ccc(C(F)(F)F)cc2)nc2c1CSCC2 [XAV939] (first compound 0.2 µM, partner dose 2 µM)	24.1	296	158	104	93.1	103	53.5	101	143	91.3	141	56.3	79.1	106			
O=C(O)c1ccc2c(c1)nc(Nc1cccc(Cl)c1)c1ccncc12 + Cn1cc(/C=C2\C(=O)Nc3cccnc32)c2ccccc21 [GW441756] (first compound 0.4 µM, partner dose 0.4 µM)	23.6	98.5	253	64.8	74.7	92.8	96.4	31.4	95.2	101	133	34.4	30.1	63.8			
CS(=O)(=O)CCNCc1ccc(-c2ccc3ncnc(Nc4ccc(OCc5cccc(F)c5)c(Cl)c4)c3c2)o1 [lapatinib] + Nc1cccc2c1CN(C1CCC(=O)NC1=O)C2=O [lenalidomide] (first compound 0.8 µM, partner dose 1 µM)	89.4	72.9	300	48.8	101	158	96.7	30.6	56.7	82.4	86.1	80.4	86.1	198	47.9	89.5	139
Nc1nc(F)nc2c1ncn2[C@@H]1O[C@H](CO)[C@@H](O)[C@@H]1O [fludarabine] + O=S(=O)(c1ccccc1)N(CC(F)(F)F)c1ccc(C(O)(C(F)(F)F)C(F)(F)F)cc1 [T0901317] (first compound 0.2 µM, partner dose 1.4 µM)	44.7	96.1	83.2	154	86.5	94.5	90.9	42.2	88	80.7	111	50.9	156	116			

Individual results from above:
Under cleaved PARP positive nuclei fraction (IST-MEL1) [%], O=C(O)[C@@H]1[O][Sb](=[O])([O][Sb]2(=[O])[O][C@H]([C@H](O)CO)[C@H](O)[C@H](C(=O)O)[O]2)[O][C@H]([C@H](O)CO)[C@@H]1O (stereo partly specified) [stibogluconate] + N#Cc1c(O)c2c(-c3ccc(-c4ccccc4O)cc3)csc2[nH]c1=O [A769662] (first compound 2 µM, partner dose 2 µM) has the entry 133
Under cleaved PARP positive nuclei fraction (CBRC017) [%], C[C@@H](Oc1cc(-c2cnn(C3CCNCC3)c2)cnc1N)c1c(Cl)ccc(F)c1Cl [Crizotinib] + O=C(Nc1ccccc1)c1cc([N+](=O)[O-])ccc1Cl [GW9662] (first compound 0.2 µM, partner dose 2 µM) has the entry 175
